Our source for the binding values is article doi:10.1101/2020.06.04.133611 (bioRxiv, 2020).

For this experiment, the target named is T1, MlaA (E. coli K-12) (UniProt P76506).
T1 sequence: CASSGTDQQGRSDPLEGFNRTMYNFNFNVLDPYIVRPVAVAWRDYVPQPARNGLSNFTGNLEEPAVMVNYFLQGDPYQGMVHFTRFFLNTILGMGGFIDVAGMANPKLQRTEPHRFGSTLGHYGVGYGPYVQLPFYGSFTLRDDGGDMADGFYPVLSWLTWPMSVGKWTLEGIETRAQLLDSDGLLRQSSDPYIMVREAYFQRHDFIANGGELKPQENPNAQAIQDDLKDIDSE
In words: pull-down.

Results are given in words; binding and its absence hold for the method and conditions named. In cells and extracts the contact can be indirect. Some binding calls cover weakened binding; strength is not graded here.

B1: OmpF (protein, UniProt P02931 23-362)
chain: AEIYNKDGNKVDLYGKAVGLHYFSKGNGENSYGGNGDMTYARLGFKGETQINSDLTGYGQWEYNFQGNNSEGADAQTGNKTRLAFAGLKYADVGSFDYGRNYGVVYDALGYTDMLPEFGGDTAYSDDFFVGRVGGVATYRNSNFFGLVDGLNFAVQYLGKNERDTARRSNGDGVGGSISYEYEGFGIVGAYGAADRTNLQEAQPLGNGKKAEQWATGLKYDANNIYLAANYGETRNATPITNKFTNTSGFANKTQDVLLVAQYQFDFGLRPSIAYTKSKAKDVEGIGDVDLVNYFEVGATYYFNKNMSTYVDYIINQIDSDNKLGVGSDDTVAVGIVYQF
Consider B1, for which the binding result is “binds”.
